# From US20210380697A1 (HUMMINGBIRD BIOSCIENCE PTE, published 2021)
# Residue numbers refer to the chain shown, from its start. Results are given in words; binding and its absence hold for the method and conditions named. Some entries that bind do so weakly or less than the wild type.
# B1: anti-VISTA clone V4-C24 IgG1 (antibody, V domains shown)
# VH: QVQLQESGPGLVKPSDTLSLTCTVSGYSITSDYTWNWIRQTPGKGLEWIGHITYSGSVSYNPSLRSRVTISRDTSKNQFSLKLSSVTAADTATYSCARALYYPWYFDVWGTGTTVTVSS
# VL: EIVLTQSPATLSLSPGERATLSCRASSSVGYIHWYQQKPGQAPRPLIYTTSYRATGIPARFSGSGSGTDNTLTISSLEPEDSAVYYCQQWSSYPPITFGGGTKLEVKR
# B2: anti-VISTA clone V4-C30 IgG1 (antibody, V domains shown)
# VH: B1 VH
# VL: B1 VL with T49A, S51Y
# B3: anti-VISTA clone V4-C26 IgG1 (antibody, V domains shown)
# VH: B1 VH
# VL: B1 VL with L46I, Y52N
# B4: anti-VISTA clone V4-C27 IgG1 (antibody, V domains shown)
# VH: B1 VH
# VL: B1 VL with T49A, S51Y, Y52N
# B5: anti-VISTA clone V4-C31 IgG1 (antibody, V domains shown)
# VH: B1 VH
# VL: B1 VL with T49A, S51Y, A54T
# B6: anti-VISTA clone V4-C28 IgG1 (antibody, V domains shown)
# VH: B1 VH
# VL: B1 VL with T49A
# Biological target: cynomolgus macaque VISTA polypeptide (ELISA) (cynomolgus macaque)
# Experiment: ELISA
row,binding,Binder
1,binds,B1
2,binds,B2
3,binds,B3
4,binds,B4
5,binds,B5
6,binds,B6
